# Measured values reported in PubChem BioAssay AID1508600 (Functional Genomics Laboratory (NCATS/FGL), 2020).
# Screen size: about 53,000 sequences; about 3,700 (7%) were called active.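 How the source made its calls: active means gene knockdowns whose robust z-score for IL-1 alpha signal is at least 2 or at most -2, so actives lie on both sides; inactive means the rest.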 The list shows a part of the results.
# Assay: Components of the Cytosolic LPS Sensing Pathway: Gene Identification via Genome-wide siRNA Screen;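 further: robust z of the log signal after scaling to non-targeting control siRNA wells of the plate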
# Details: RAW264.7 macrophages, IL-1a HTRF, actives lie on both sides, screened at 100 nM (by protocol), cells primed 5 h with Pam3CSK4 first
# How it was run: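 Mouse macrophage line RAW264.7 is transfected with siRNA (100 nM final), grown 48h, primed with TLR ligand Pam3CSK4 5 h and given intracellular LipidA 24 h. IL-1a in supernatant is read by HTRF and viability by luminescence.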
row,Sequence,z-score
1,GGAAAUACCAUUCAAGUGUTT against Rnf113a1,inactive: 1.05
2,GGUAAAAGGUGAAGAAAAATT against Nap1l3,inactive: -1.51
3,CCACGUUUUGACUGACUUCTT against Thnsl1,inactive: 0.287
4,GCUGGAGAUGAUUGUCUGATT against Psmd8,inactive: -1.22
5,GGAACUGCCUACCUAGAGATT against Mrps17,inactive: 0.782
6,GGAGAAGAAACGGAAAUGATT against Jagn1,inactive: -1.98
7,GGCAGAUUUAGUUUCUUUUTT against Ppm1k,inactive: 0.936
8,GGACUCAGAGCUCUUUGACTT against Ipo13,inactive: -1.74
9,CCAUGAGGAUGGAAACUACTT against Ranbp3,inactive: -1.73
10,GGAAACAUGACAGUGGUGCTT against Hypk,inactive: -0.825
11,GGGCAAGAUUAAGACUUAUTT against Armcx1,inactive: -0.715
12,GGUACCGGAGUCUGAAACATT against Drp2,active: -2.53
13,GGUGGUUAGAUCUUACGCUTT against Tmem184a,active: 4.37
14,GGCAGAAACCAAGUUGGCUTT against Diablo,inactive: -0.502
15,GGACCUGGUUCAGGUAUCATT against Col6a3,active: -2.17
16,GCGGCUUACUCAAAUCAAGTT against Ctdspl2,inactive: -0.837
17,CCUCUGCUUUAUGAUCAACTT against Gm867,inactive: -1.26
18,GCCAUGCUCACUGAACUUCTT against Nanp,active: -2.3
19,CCUGGAACUUUUCCCUUAUTT against Olfr235,inactive: 0.0668
20,GCUUAGAUCACCUAAUGACTT against Parp3,inactive: 1.18
21,GGUCACAGAUGAAAUUAUGTT against Ltbr,inactive: 0.2
22,GGCUCCUUUUUGAGCUGAATT against Zfp950,inactive: -0.525

row,Sequence,z-score
1,GCCCAAAUCGCUUACUCAUTT against Rtn4ip1,inactive: -1.18
2,GGUGCAACAAUCAUUUGAATT against Casp4,inactive: -0.431
3,ACUCAAUGUGCUCAAAAAATT against Scnm1,inactive: -0.713
4,GGUGCUAUGGAAAAUCAAGTT against Dcaf1,inactive: -1.04
5,CCUUUCCUACUCCCAACACTT against Egr1,inactive: 0.21
6,CCCAUGCUCUCAAGACCAATT against Epn3,inactive: -0.0257
7,GGUAGCCAAACUUCGUCGATT against Trim37,inactive: -0.237
8,GGACAACAUUGCCUGUACUTT against Islr,inactive: -1.01
9,CGGUUCCAACCUUGAAAAATT against H1f10,inactive: -0.676
10,CUUUGCUCUAUCUCUCAGCTT against Olfr504,inactive: 1.44
11,CCUACACUGAGAUUUCAACTT against Nsl1,inactive: -0.595
12,GGAUAGGUUGAACAGGUUGTT against BC028528,inactive: 1.19
13,GGAUCAGAACUUAUCUGUGTT against Utp23,inactive: 0.383
14,CCUUUAUCAUUGGAUAACUTT against Dusp11,inactive: 1.53
15,GGCAGUUCUCCAGUGCUUUTT against Mtss1,inactive: -1.32
16,GGUAAUAAAGCUCUUACAGTT against Nanp,inactive: 0.0716
17,GGCUAGCAGGAUCAGCAUCTT against Rnf212,inactive: 0.617
18,GCUAUGUGAGUUCCACAAATT against Rapsn,inactive: -1.28
19,CCUGUUCUAACUGUAUCUUTT against Pcdhb9,inactive: -0.129
20,GGUUUAAGAAGUCAACAUUTT against Slc36a4,inactive: -0.861
21,GGCAAGAAGUAUUUCCAUGTT against Fcgr4,inactive: 0.795
22,GGAGUUUUAUGCUGAGCAGTT against Eef1akmt1,inactive: 1.51

# A few values from the results shown.
# ACUCAAUGUGCUCAAAAAATT against Scnm1 – z-score: inactive: -0.713
# GGUAAUAAAGCUCUUACAGTT against Nanp – z-score: inactive: 0.0716

# (next part)

row,Sequence,z-score
1,GCACUCAAUAUAGCUUUAATT against Olfr1489,inactive: -0.81
2,GGCAUCUUAUUUCUUGUUATT against Tbkbp1,inactive: -0.56
3,GCGAUUUGUCAAAGAGCUGTT against Pcyox1,inactive: -0.0486
4,GGAGAAUUUGGAAAGUGAGTT against Rnf150,inactive: 0.0696
5,GGUUGUUGUUUCGUAACAUTT against Celf2,inactive: -0.153
6,GGAUGGAGACACCAAUUUUTT against Rdh9,inactive: -0.37
7,GGCUGAAGACACUGAACACTT against Olfr643,active: -2.51
8,UGAACAAACUUUCAGCCUCTT against Ugt2b5,inactive: -0.323
9,GGAUUUAACCCUGAGAUACTT against Grpel2,inactive: 0.621
10,GGAGGUAUACAUCACCACATT against Pidd1,inactive: 1.43
11,GGUACUACAAAAGAGAGCUTT against Ubr1,inactive: -0.237
12,GGAAAAGGUGGAGUUCUUATT against Fsd2,inactive: 0.0598
13,GGACAUGAAAGUUGACCUGTT against Mrps31,inactive: 0.465
14,GGCAAAAAUACUUUGUCGGTT against Alox5ap,inactive: -0.283
15,GGAUAUUAUUGUUCCCACUTT against Olfr907,inactive: -0.174
16,GGAAUAUCCAGUAUUGAUUTT against Cd180,inactive: -0.396
17,CCAGUGCCUCAAGCUUUCATT against Slc35f6,inactive: 0.403
18,GGCAUCAGUUCCACAACUCTT against Klhl38,inactive: -0.747
19,GGCUUGUUUGAUGUUUGCATT against Ldhb,inactive: 1.93
20,GCCUCUGAAAGUGUAAUUATT against Ccdc103,inactive: 0.184
21,GGGAGUUAACUUCAAGGAATT against Ffar4,inactive: 0.555
22,GCAAAACCUACUGCGUGGATT against Kmt5a,inactive: -0.796

row,Sequence,z-score
1,CAGGGCUCACAGAGUCUCCTT against Olfr190,inactive: -0.382
2,GCUGUAUGGCUAAGCAGUGTT against Olfr113,inactive: -0.42
3,GGGAGUGACUCAGAUCGAUTT against Atp6v1c1,inactive: -0.157
4,CGGGAAGUAGUGCAACACCTT against Taldo1,inactive: -0.902
5,GGAGCUGAUAAAUCUGAACTT against Dhrs7,inactive: 1.68
6,GGAACAGCAGCCUGAAUGATT against B4galt5,inactive: -0.65
7,CCCUGCCCGGGUUUUUAUATT against Tspan9,inactive: 0.0317
8,CGAAUUCAAUGUGCAUUAGTT against Tmem232,inactive: -0.442
9,GGAAGAACUAAAGAGUCUUTT against Elavl2,inactive: -0.692
10,GGGUGAUGAUGGAUUCUGUTT against Eef1g,inactive: 1.04
11,GGAGUAAACCUACUGCUCATT against Esam,active: 2.14
12,GGAUCAAAUCAAGAAGAUGTT against Chmp5,inactive: 0.627
13,GGUUUUUUUGAGUUUCAGGTT against Lars,inactive: -0.405
14,GGACAGCCACCCAUCUGAATT against Ddx59,inactive: 0.465
15,GGAUCAUAUAUGAAGCACATT against Mybl1,active: -2.16
16,GGCUUCAAACACUUCCUUGTT against Sh2d4b,inactive: 0.818
17,CCUGUAGGUGGAAUAAACATT against Awat2,active: -2.28
18,GGAGUUUGUUGGAGCCAUUTT against Unc79,inactive: 0.0777
19,GGUGACAACCAUGAUCUCCTT against C1qtnf2,inactive: -0.153
20,GGUUUCCAGAAGAAGGUUCTT against Rbm26,inactive: 0.621
21,GGACCGCCGUGUAAUGAUCTT against Kat6b,inactive: -0.513
22,GCCAAUAAACCCGUUUUUATT against Timm10b,inactive: 0.0478

row,Sequence,z-score
1,GGUGGAGAGGGACAACUUUTT against Gfap,inactive: 1.39
2,GGAUGAUCACAUCGAUUGGTT against Vps41,inactive: 0.0283
3,GCAGUUUUAUAAUCCUAGUTT against Eloa,inactive: -0.134
4,GGUUCCUCUCCUCCUGAUATT against Olfr1444,inactive: -0.261
5,GCAGUAGUAACUGCUUGAGTT against Saa2,inactive: -1.29
6,GCCCUGUACACGGUAAACUTT against Ackr4,inactive: 1.05
7,GCAAUAGCAAAACGACUAATT against Nrk,inactive: 0.517
8,GCGUGUGACUUACAAGGAATT against Mapk12,inactive: -0.369
9,GCAUUUAUAAUUGCUGAACTT against Cbx1,inactive: -0.637
10,CCCUUAUGAACCCAUAAAGTT against Oasl1,inactive: -1.02
11,GGAAUCUAGGAUUCCACAGTT against Tbxa2r,inactive: -1.24
12,GGCUUAAACACCUCCAAUGTT against Ctnnd2,inactive: -0.232
13,GCUAUGUGUUGAUUUAAAGTT against Pdk1,inactive: 0.422
14,GGCAUUGAAGACAAGACCCTT against Mtpap,inactive: -0.188
15,CAAAUCAAGAGCCUCUAUGTT against Acsl5,inactive: 0.548
16,CCAUGUCUAUGAGUGUAGATT against Camsap3,inactive: 1.55
17,GCCCACCAUUCAGAUAGAGTT against Tacstd2,inactive: 0.0833
18,CCUUUGACUUCACUAUUGATT against Map4k2,inactive: 0.599
19,CGCGGUAUUCUCCUUGAAGTT against Ccr4,inactive: 1.07

# Reformatted tab-delimited: part of the list above.
row	Sequence	z-score
12	GGAAAAGGUGGAGUUCUUATT against Fsd2	inactive: 0.0598
13	GGACAUGAAAGUUGACCUGTT against Mrps31	inactive: 0.465
14	GGCAAAAAUACUUUGUCGGTT against Alox5ap	inactive: -0.283
15	GGAUAUUAUUGUUCCCACUTT against Olfr907	inactive: -0.174
16	GGAAUAUCCAGUAUUGAUUTT against Cd180	inactive: -0.396
17	CCAGUGCCUCAAGCUUUCATT against Slc35f6	inactive: 0.403
